These are yes or no findings as the source states them, for the method shown. Binding seen in cells or lysates may run through a third protein. A result given as binding can be weak or reduced; the word gives no strength.
Target: Nerve growth factor (mouse (endogenous in BV2)) (UniProt P01139)
Experiment: co-IP; cell lysate supernatant incubated with IgG (control) or NGF antibody at 4°C overnight, protein A/G magnetic beads, washing, elution in a low-pH buffer

By UniProt entry, the sequences of proteins in these tests, tags left out. Where a name states a change or a piece, a line headed by the entry shows the natural chain unless it says otherwise.
UniProt P01139: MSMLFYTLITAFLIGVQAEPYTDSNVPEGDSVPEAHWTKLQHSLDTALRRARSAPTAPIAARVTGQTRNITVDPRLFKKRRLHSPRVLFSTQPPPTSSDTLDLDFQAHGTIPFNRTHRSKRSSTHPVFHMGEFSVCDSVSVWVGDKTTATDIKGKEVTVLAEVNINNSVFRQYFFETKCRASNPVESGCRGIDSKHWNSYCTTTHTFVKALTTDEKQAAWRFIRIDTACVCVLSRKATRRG
UniProt Q01147: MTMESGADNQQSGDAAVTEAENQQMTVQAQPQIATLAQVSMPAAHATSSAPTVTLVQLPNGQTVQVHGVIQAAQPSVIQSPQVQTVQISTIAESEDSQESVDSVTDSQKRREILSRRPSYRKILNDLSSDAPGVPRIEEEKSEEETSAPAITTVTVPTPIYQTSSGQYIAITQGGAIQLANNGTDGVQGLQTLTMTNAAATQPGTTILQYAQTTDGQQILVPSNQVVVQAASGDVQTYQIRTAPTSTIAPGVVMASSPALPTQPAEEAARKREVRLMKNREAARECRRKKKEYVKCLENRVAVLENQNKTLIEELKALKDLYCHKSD

cAMP response element-binding protein (from UniProt Q01147 1-327)
binding: binds
